Results are given in words; binding and its absence hold for the method and conditions named. In cells and extracts the contact can be indirect. Some entries that bind do so weakly or less than the wild type.

Chains of the proteins cited; added tags and fusions are not shown.
UniProt Q99942: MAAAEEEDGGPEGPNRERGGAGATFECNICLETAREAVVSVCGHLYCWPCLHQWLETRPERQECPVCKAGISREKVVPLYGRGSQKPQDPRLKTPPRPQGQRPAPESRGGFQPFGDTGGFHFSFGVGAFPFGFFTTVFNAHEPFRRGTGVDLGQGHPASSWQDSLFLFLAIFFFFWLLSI
UniProt Q86WV6: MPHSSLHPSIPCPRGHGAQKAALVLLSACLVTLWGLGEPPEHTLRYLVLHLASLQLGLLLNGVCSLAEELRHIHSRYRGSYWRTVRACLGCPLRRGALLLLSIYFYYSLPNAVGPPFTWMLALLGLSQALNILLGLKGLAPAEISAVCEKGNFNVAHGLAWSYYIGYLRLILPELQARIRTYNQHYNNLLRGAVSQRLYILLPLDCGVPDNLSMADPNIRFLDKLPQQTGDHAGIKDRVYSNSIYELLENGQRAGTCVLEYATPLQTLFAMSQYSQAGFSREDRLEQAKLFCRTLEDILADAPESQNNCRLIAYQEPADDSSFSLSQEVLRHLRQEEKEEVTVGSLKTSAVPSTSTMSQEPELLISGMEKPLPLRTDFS
UniProt O35445: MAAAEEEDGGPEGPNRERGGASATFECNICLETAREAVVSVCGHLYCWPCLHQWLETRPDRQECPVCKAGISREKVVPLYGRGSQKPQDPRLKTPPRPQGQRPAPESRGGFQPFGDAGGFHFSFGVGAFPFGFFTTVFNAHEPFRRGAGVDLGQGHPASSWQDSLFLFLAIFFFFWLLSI

The target of one assay is Flag-tagged RNF5 (UniProt Q99942). Description: co-IP; HEK293T transfected with the indicated plasmids (RNF5, STING, CYLD), 36 h; IP with anti-Flag (S4B Fig).
In assay [1] the target is T1, endogenous STING (mouse cells) (mouse (endogenous in MEFs and BMDMs)) (UniProt Q3TBT3).
T1 sequence: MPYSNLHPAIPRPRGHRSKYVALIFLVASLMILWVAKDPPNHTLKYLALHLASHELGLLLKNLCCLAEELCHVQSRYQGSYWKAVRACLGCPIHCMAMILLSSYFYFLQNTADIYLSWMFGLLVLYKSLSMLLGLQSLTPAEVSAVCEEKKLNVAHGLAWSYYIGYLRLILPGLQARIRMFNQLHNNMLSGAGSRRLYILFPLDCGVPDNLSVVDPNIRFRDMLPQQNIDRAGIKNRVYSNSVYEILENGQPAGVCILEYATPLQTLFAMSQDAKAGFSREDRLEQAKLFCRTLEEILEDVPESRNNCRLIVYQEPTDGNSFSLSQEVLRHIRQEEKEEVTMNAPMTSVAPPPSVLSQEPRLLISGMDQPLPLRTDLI
The assay is described as follows: co-IP.

As to “HA-tagged STING (from UniProt Q86WV6 1-379)”, the binding entry with Flag-tagged RNF5 is “binds”. As to “endogenous RNF5 (MEFs) (from UniProt O35445 1-180) (enzyme)”, the binding result in assay [1] is listed as “binds”.

For the origin of these results see paper PMC6235404.
